Measurements published in PubChem BioAssay AID2685 (National Center for Advancing Translational Sciences (NCATS), 2010).
Screen size: about 320,000 compounds; about 2,100 (0.66%) were called active. This list was built around the results that the source calls inconclusive (neither active nor inactive); the mix of calls is not that of the screen. The call rests on the fitted dose curve; in most records, active means well fitted inhibition curve with a large enough effect in the signal ratio, with a control signal flat (not every such curve was filed as active); inconclusive means small, poorly fitted or top-dose-only effect, or effect the other way, or a change in a side signal; inactive means flat fitted curve, though single readings scatter; the % refers to the signal ratio. A potency beside an inconclusive call is a rough fit, not a confirmed value.

test: qHTS Assay for Lipid Storage Modulators in Drosophila S3 Cells; conditions: BODIPY lipid droplet fluorescence, 18-24 h, cells fed with added oleic acid; lipid storage change, negative = inhibition: at 46.1 µM (top of the series) unless noted
In short: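 Laser-scanning cytometry quantifies lipid droplet accumulation (500–530 nm total intensity; droplet/cell object ratio) in oleic acid-fed (400 uM added) Drosophila S3 cells treated with a concentration series. 20 uM Triacsin C defined 100% inhibition.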
On the % scale 0 is the no-effect control and ±100 the full control effect; potency means the concentration at half of the fitted maximal effect.

SMILES | Potency | lipid storage change, negative = inhibition
CCOC(=O)CN1CC23C=CC(O2)C(C(=O)NC2CCCCCC2)C3C1=O (centres undefined) | inconclusive: 1.84 µM [falling, full curve, poor fit] | 
CC(=O)Nc1ccc(/C=C/c2nc3ccccc3[nH]c2=O)cc1 |  | inconclusive: -100%
COCCn1nnnc1C(c1ccccc1OC)N1CCN(c2ccccc2F)CC1 (centres undefined) | inconclusive: 4.11 µM [rising, partial curve] | 
O=C(NC1CC2CCCC(C1)N2C(=S)Nc1ccc(Cl)cc1)C1CC1 (centres undefined) |  | inconclusive: 28.3%
O=C(C1CCCN(Cc2ccc3c(c2)OCO3)C1)N1CCCC1 (centres undefined) |  | inconclusive: -22%
O=C(/C=C/c1ccco1)c1cccnc1 |  | inconclusive: -6.58%
Cc1ccc(S(=O)(=O)NCCC(c2ccccc2)c2ccco2)cc1 (centres undefined) | inconclusive: 10.3 µM [falling, partial curve] | 
N#C/C(=C\c1ccc(Sc2ccc(Cl)cc2)o1)c1nc2ccccc2[nH]1 | inconclusive: 29.1 µM [falling, single point] | 
Cc1ccc(S(=O)(=O)N2CCC(=O)N(CCOCc3ccc(Cl)cc3)CC2)cc1 |  | inconclusive: 6.44%
O=C(OCC#CCSc1nc2ccccc2o1)c1cc2ccccc2o1 |  | inconclusive: 14.3%
O=C(CN1C(=O)/C(=C/c2ccccc2)SC1=S)NC1C=CS(=O)(=O)C1 (centres undefined) | inconclusive: 32.6 µM [falling, single point] | 
Cc1onc(-c2ccccc2)c1C(=O)Nc1nc(-c2cc(F)ccc2F)cs1 |  | inconclusive: 11.8%
CCCCOc1ccccc1NC(=O)C=C(C)C | inconclusive: 9.2 µM [activator, partial curve] | 
CC1C=CCC2C(=O)N(c3cccc(C(=O)Nc4ccc(F)cc4)c3)C(=O)C12 (centres undefined) |  | inconclusive: -100%
CCC(CO)Oc1cc(NC(=O)c2ccccc2)c2ncn(C(C)C)c2c1 (centres undefined) |  | inconclusive: -19.6%
O=c1[nH]c(SCc2ccccc2[N+](=O)[O-])nc2nc[nH]c12 |  | inconclusive: 13.3%
Cn1nc(CC(=O)Nc2cccnc2N2CCOCC2)c2ccccc2c1=O |  | inconclusive: -7.34%
COc1ccc(S(=O)(=O)Nc2cccc(-c3ccc4nncn4n3)c2)c(OC)c1 |  | inconclusive
CC1=C(C(=O)Nc2ccccc2)C(c2ccc(C)cc2)N=C(Nc2nc3ccccc3o2)N1 (centres undefined) |  | inconclusive: 5.81%
CCCn1c(=O)c(C(=O)NCCc2ccc(OC)cc2)c(O)c2ccccc21 | inconclusive: 9.2 µM [activator, partial curve] | 
COc1cc(/C=N/NC(=O)c2cccnc2)ccc1OC(=O)c1cc(OC)c(OC)c(OC)c1 |  | inconclusive: 450%
CSc1ccccc1NC(=O)c1cc2c(=O)n3ccccc3nc2s1 |  | inconclusive: -19.3%
COC(=O)c1cccc(NS(C)(=O)=O)c1C |  | inconclusive: -0.52%
Cc1ccc(S(=O)(=O)N2CCN(C(=O)NCc3ccc(C(=O)O)cc3)CC2)cc1 | inconclusive: 5.8 µM [activator, single point] | 
Cc1cc(N/N=C/c2cccc(Br)c2)nc2ccccc12 | inconclusive: 23.1 µM [falling, single point] | 

SMILES | Potency | lipid storage change, negative = inhibition
Cc1ccnc(NC(=O)c2ccc([N+](=O)[O-])o2)c1 |  | inconclusive: -11.2%
CN(c1ccccc1)S(=O)(=O)c1cccc(NC(=O)CCNC(=O)c2ccc(Cl)cc2)c1 | inconclusive: 6.51 µM [activator, single point] | 
CN(CC(=O)Nc1ccccc1Br)CC(=O)Nc1ccccc1C(F)(F)F |  | inconclusive: 34.6%
C=CCn1c(CCNC(=O)c2cccs2)nnc1SCC(=O)c1cccc([N+](=O)[O-])c1 |  | inactive
Cc1ccc(S(=O)(=O)N2CCN(C3CCN(Cc4ccccc4)CC3)CC2)cc1 |  | inactive
COc1ccc(/C=C/C2=CCN(Cc3ccc(OC)cc3)CC2)cc1 |  | inconclusive: -10.7%
Cc1onc(-c2c(Cl)cccc2Cl)c1C(=O)NN1CCCCCC1 |  | inconclusive: -21.8%
CN(C(=O)/C=C/c1ccc2c(c1)OCO2)c1ccccc1 |  | inconclusive: -10.3%
CN(C)c1ccncc1C(=O)Nc1ccc(F)cc1F |  | inconclusive: 0.836%
CCOC(=O)c1ccc(NC(=O)c2cccc(S(=O)(=O)N3CCOCC3)c2)cc1 |  | inconclusive: -5.94%
CC(=O)Nc1cc2c(cc1C(=O)c1ccc(C)cc1)OCCO2 |  | inconclusive: 25.3%
COc1ccccc1CNS(=O)(=O)c1cc(C(=O)NCc2ccccn2)c(Cl)cc1Cl |  | inconclusive
CCOC(=O)C1=C(c2ccccc2)N=c2s/c(=C\c3ccc(O)cc3)c(=O)n2C1c1cccs1 (centres undefined) |  | inconclusive: -193%
COc1ccccc1CC(NC(C)=O)C(=O)NC1CCN(C(=O)Nc2ccccc2F)CC1 (centres undefined) | inconclusive: 1.46 µM [falling, partial curve, poor fit] | 
O=C(CSc1nnc2c(n1)[nH]c1ccc(S(=O)(=O)N3CCOCC3)cc12)Nc1ccccc1Cl |  | inconclusive: 23.4%
O=C(CN(Cc1ccccc1)C(=O)CCC(=O)Nc1nccs1)NCc1ccco1 |  | inconclusive: 32.5%
CSc1nc(SCC(=O)NCC2CCCO2)c2c3c(sc2n1)CN(C)CC3 (centres undefined) | inconclusive: 0.651 µM [falling, single point] | 
Cc1ccc(S(=O)(=O)NCC(=O)OCC(=O)NC(=O)NC2CCCC2)cc1 |  | inconclusive: 36.6%
O=C(CN(Cc1ccccc1)S(=O)(=O)c1ccc2c(c1)OCCO2)N/N=C/c1ccc(F)cc1 |  | inconclusive: -7.84%
COc1ccccc1NC(=O)CSC1=NCCN1 |  | inconclusive: -9.54%
O=C(NCc1cccnc1)C1CCN(S(=O)(=O)c2cccc(C(F)(F)F)c2)CC1 | inconclusive: 0.517 µM [activator, full curve] | 
c1ccc(N2CCN(c3ncnc4sc5c(c34)CCC5)CC2)cc1 | inconclusive: 0.461 µM [activator, full curve] | 
CC(C)CCC(CCN1CCOCC1)c1ccc2c(c1)OCO2 (centres undefined) |  | inconclusive: 4.79%
CCOC(=O)N1CCN(S(=O)(=O)N2CCCC(C(=O)NCCc3ccc(OCC)c(OCC)c3)C2)CC1 (centres undefined) | active: 4.61 µM | 

In another format: entries from further up.
SMILES	Potency	lipid storage change, negative = inhibition
CCOC(=O)C1=C(c2ccccc2)N=c2s/c(=C\c3ccc(O)cc3)c(=O)n2C1c1cccs1 (centres undefined)		inconclusive: -193%
CC(C)CCC(CCN1CCOCC1)c1ccc2c(c1)OCO2 (centres undefined)		inconclusive: 4.79%
